A: 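Whole-parasite assay of Trypanosoma brucei over 72 hours; the read-out is not stated. Tested at 30 µM. The record gives no direction; compounds that gave an IC50 in retests scored well above the rest, so higher reads as stronger inhibition. Values scatter widely below zero; nearly all retest evidence comes from the higher of the two concentrations used. Size under these conditions: about 64,000 compounds, about 940 of them at 50% or above in at least one test.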
B: 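Assay of Toxoplasma gondii numbers, read through their beta-galactosidase reporter with a colour substrate. Compounds at 10 µM. Higher reads as fewer parasites (inferred from which compounds were picked for retests). Size under these conditions: about 67,000 compounds, about 260 of them at 50% or above in at least one test.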

Each number is a percent effect as filed.
How 0% and 100% were set is not recorded. Most values in the screen are low, and negative values occur.
This is an unselected part of the compounds tested.

structure,A,B
CC(=O)NCCNc1nccc(CCC(F)(F)F)n1,-91.61,8.732
CCCc1noc(CNc2cc(C[S+](C)[O-])ccc2Cl)n1 (centres unmarked),-4,-1.193
CC(C)c1nnc(NC(=O)NC2CCN(Cc3ccccc3)C2)s1 (centres unmarked),2.739,28.64
CCc1nnc2n1CCN(CC(=O)N(CC)C1=CCCCC1)C2,-18.62,5.409
O=C(O)C(F)(F)F.[H][C@@]12OCCN(Cc3ccc(F)c(F)c3)[C@@]1([H])CC[C@H]2OC,-7.78,2.033
O=C(O)C(F)(F)F.O=C(O)C(F)(F)F.[H][C@]12CCN(Cc3ccco3)[C@@]1([H])CC[C@@H](COCc1cccc(C)n1)O2,-37.15,1.275
Cc1nc2ccccc2nc1NCc1cccc(OCC2CCCO2)c1 (centres unmarked),-35.44,17.15
Cc1ccccc1CN1CCNC(=O)C1CC(=O)NCC1CCCCC1 (centres unmarked),-36.4,-19.27
[H][C@@]12CN(S(C)(=O)=O)C[C@]1(C(=O)NC)CCC21CCN(C(=O)COC)CC1,-36.37,4.827
Cc1nc(C)n(C2CCCN(C(=O)Cc3ccc4c(c3)CCC4)C2)n1 (centres unmarked),-8.862,22.13
CCOCC1CN(S(=O)(=O)c2cccc(C)c2)Cc2nccn2C1 (centres unmarked),0.09322,-3.235
O=C(O)C(F)(F)F.[H][C@@]12CN(C(=O)c3ccsc3)C[C@]1([H])C(=O)N(CCN(C)C)C2,-30.85,16.14
CCc1nnc(CN(C)C2CCCN(Cc3noc(C4CC4)n3)C2)o1 (centres unmarked),-13.5,-17.38
O=C(NCCSc1ccccc1F)NCc1cccnc1,6.091,9.432
CNC(=O)COc1ccccc1CNCc1c(C)noc1C,-50.01,-20
Cc1nn(Cc2ccc(C(=O)NCCCN3CCCC3=O)o2)c(C)c1Cl,-17.76,-4.966
Cc1nc(CN2CCc3cnc(C(C)C)nc3C2)oc1C,-30.99,8.907
CC(C)NC(=O)Nc1ccc2c(c1)ncn2CC(=O)NCCN(C)C,-11.02,-16.66
COc1c(CNC2CCN(C(C)(C)C)CC2)c(C(C)C)nn1C,43.82,-2.95
Cc1n[nH]cc1C(=O)N1CCCC(c2cccc(-n3ccnc3)n2)C1 (centres unmarked),3.639,-12.73
Cc1cc(C[C@@H]2COC[C@H]2NCc2ccccc2C(F)(F)F)on1.O=C(O)CC(O)(CC(=O)O)C(=O)O,11.54,15.95
COc1nn(C)c2c1CCCN(C(=O)c1ccc3c(c1)OCO3)C2.O=C(O)C(F)(F)F,-20.99,13.44
CC(C)CC(O)C1CCN(Cc2ccc(N(C)C)nc2)CC1 (centres unmarked),9.878,9.638
O=C(O)C(F)(F)F.O=C(c1ccncn1)N1CCC[C@]2(C[C@H](Oc3ncccc3F)CO2)C1,-51.48,2.145
Cc1cnn(CC2CCCCN2CC(=O)Nc2cccnc2)c1 (centres unmarked),-16.59,21.51
Cn1ncc2c1C(COCC1CC1)CN(Cc1nccs1)C2 (centres unmarked),24.93,-1.109
CN(Cc1ccncc1)C1COC2(CCN(Cc3nccn3C)CC2)C1.O=C(O)C(F)(F)F.O=C(O)C(F)(F)F.O=C(O)C(F)(F)F (centres unmarked),-3.436,7.551
CNC(=O)[C@@H]1C[C@@H](N)CN1Cc1ccc2cccc(OC)c2n1,5.739,0.1775
CNC(=O)C1CCC(NC(=O)N(C)Cc2c(C)noc2C)CC1 (centres unmarked),-11,27.29
CCN(C)c1cc(CNC(=O)CNC(=O)CC2CCCCC2)ccn1,-8.136,0.7392
CCn1cc(Cn2cc(Cl)c(N)n2)c(C)n1,5.418,-6.287
CCC(=O)NC1CCCN(c2cncc(OCc3ccccc3)n2)C1 (centres unmarked),-0.1031,-14.09
O=C(NCCNS(=O)(=O)c1ccc2c(c1)CCCC2)c1ccoc1,18.06,-6.608
CCc1c(O)nc(SC(C)CC)n(-c2ccccc2)c1=O (centres unmarked),4.612,-1.737
CCN(C(=O)NCCc1ccc(C)cc1C)C(C)CS(C)(=O)=O (centres unmarked),-19.88,-1.256
N#CCCN(C(=O)CN1CCCC1c1ccsc1)c1ccccc1F (centres unmarked),-1.542,0.9693
Cn1cnnc1CNC(=O)CCCOc1ccccc1Cl,-12.31,-0.6554
Cn1nnc2c1CCN(Cc1ccncc1)C2COCc1ccccc1.O=C(O)C(F)(F)F.O=C(O)C(F)(F)F (centres unmarked),-97.73,10.54
CCN(CC)c1ccc(NS(=O)(=O)c2cnn(CC)c2)cn1,-44.69,20.17
Cc1cn2c(CN(C)C(=O)c3nccnc3N)c(C)nc2s1,-14.42,9.238
O=C(NCCNC(=O)c1ccc(Cl)cc1)NCCn1cccc1,8.515,1.617
CC(=O)Nc1ccsc1C(=O)Nc1cnc2n1CCCC2,-46.99,5.847
[H][C@]12CC[C@]([H])(CN(Cc3[nH]cnc3C)C1)N(C(=O)c1cnn(C)c1)C2,-62.23,-9.428
COc1cccc(S(=O)(=O)CCNC(C)Cn2cccn2)c1 (centres unmarked),1.789,-2.17

The values are deposited in ChEMBL (CHEMBL3988442, “University of Dundee, Small-Polar-MMV Screening Library” (2021)).